Key:
Assay in all cases: MBC (minimum bactericidal concentration) test in Wash NEXT reagent
Assay type in all cases: cell-based
[1] = test system: Aspergillus glaucus- DMO (Q)
Description: (§1) The stock organisms were thawed and subbed prior to beginning the MBC test. Molds were subbed to SDA plates one week before, and the bacteria were subbed to TAT agar plates 24 hours prior to the start of the test. All plates were incubated at 32 degrees C.
(§2) For the molds, each organism was inoculated into 40 ml sterile saline in a centrifuge tube to create a density of MacFarland #5. Two serial dilutions of 1:100 were then made, resulting in 10^−2 and 10^−4 concentrations. Each dilution was vortexed before it was sampled, and sterile Eppendorf pipette tips were used to make each transfer. The 10^−4 dilution was spiral plated to yield the initial inoculum concentration.
MBC trays were set up with the prepared test reagent. Using a Matrix pipettor, 100 μl aliquots of reagent were distributed into the wells, diluting the amount of preservative from 100% to 10% increments, using unpreserved reagent as the diluent. In one row, 100% non-preserved reagent acted as a positive control and served as a benchmark for a full mat of growth. In well #12H, 100 μl unpreserved reagent was pipetted, and this well was not inoculated with organisms, as it served as the negative control. Once all of the trays were prepared, the prepared bacteria/mold suspensions were poured into the MBC inoculating trays. These were placed onto the reagent trays, and 0.01 ml inoculum was introduced into the 100 μl of reagent in each well.
This was done by dipping a sterile cotton swab into each well, and absorbing all of the liquid in the well. The swab was rolled onto a TAT agar plate ensuring that the entire swab touches the agar. Plates ware incubated at 32 degrees C. for 48 hours to 7 days, depending on the organism. Observations for growth were performed by a scoring matrix using + for a full mat, +/− for some growth, a numerical value for an actual colony count, and—for no growth.
Below are tables that contain the data obtained in Example 1. The MBC test is scored by (+) indicating a full grown mat of organisms, equivalent to the organisms in the unpreserved reagent. (+/−) indicates there is some kill evident disturbing that mat or bringing the quantities down to an almost countable level. An actual number is the actual number of colonies growing at that concentration of preservative. (−) indicates no growth found. The MBC trays were stored at room temperature for the entire test.
The materials and methods and analysis of the MBC test were the same as in Example 1.

Pseudomonas putida (K) = conditions: 50% preservative, 48 hour
Description: as §1
as §2, with “Each bacterial” for “For the molds, each”, “#1.” for “#5.”
(§3) MBC trays were set up with the prepared test reagent. Using a Matrix pipettor, 100 μl aliquots of reagent were distributed into the wells, diluting the amount of preservative from 100% to 10% increments, using unpreserved reagent as the diluent. In one row, 100% non-preserved reagent acted as a positive control and served as a benchmark for a full mat of growth. […]
(§4) Below are tables that contain the data obtained in Example 1. The MBC test is scored by (+) indicating a full grown mat of organisms, equivalent to the organisms in the unpreserved reagent. (+/−) indicates there is some kill evident disturbing that mat or bringing the quantities down to an almost countable level. […]

[2] = test system: Penicillium notatum-KMO (R); design: key: number = actual colony count; + full mat, − no growth
Description: as §1, §2, §3, §4

Cc1cc(NS(=O)(=O)c2ccc(N)cc2)no1 [Sulfamethoxazole, sulfamethoxazole]
MBC test growth score ([1]; 10% preservative, 8 hour): + | MBC test growth score ([1]; 10% preservative, 24 hour): + | MBC test growth score ([1]; 10% preservative, 48 hour): +/− | MBC test growth score ([1]; 10% preservative, 72 hour): +/− | MBC test growth score ([1]; 10% preservative, 7 day): +/− | MBC test growth score ([1]; 10% preservative, 14 day): +/− | MBC test growth score ([1]; 20% preservative, 8 hour): + | MBC test growth score ([1]; 20% preservative, 24 hour): + | MBC test growth score ([1]; 20% preservative, 48 hour): +/− | MBC test growth score ([1]; 20% preservative, 72 hour): +/− | MBC test growth score ([1]; 20% preservative, 7 day): +/− | MBC test growth score ([1]; 20% preservative, 14 day): +/− | MBC test growth score ([1]; 30% preservative, 8 hour): + | MBC test growth score ([1]; 30% preservative, 24 hour): + | MBC test growth score ([1]; 30% preservative, 48 hour): +/− | MBC test growth score ([1]; 30% preservative, 72 hour): +/− | MBC test growth score ([1]; 30% preservative, 7 day): +/− | MBC test growth score ([1]; 30% preservative, 14 day): +/− | MBC test growth score ([1]; 40% preservative, 8 hour): + | MBC test growth score ([1]; 40% preservative, 24 hour): + | MBC test growth score ([1]; 40% preservative, 48 hour): +/− | MBC test growth score ([1]; 40% preservative, 72 hour): +/− | MBC test growth score ([1]; 40% preservative, 7 day): 16 | MBC test growth score ([1]; 40% preservative, 14 day): 12 | MBC test growth score ([1]; 50% preservative, 8 hour): + | MBC test growth score ([1]; 50% preservative, 24 hour): + | MBC test growth score ([1]; 50% preservative, 48 hour): +/− | MBC test growth score ([1]; 50% preservative, 72 hour): +/− | MBC test growth score ([1]; 50% preservative, 7 day): 14 | MBC test growth score ([1]; 50% preservative, 14 day): 11 | MBC test growth score ([1]; 60% preservative, 8 hour): + | MBC test growth score ([1]; 60% preservative, 24 hour): + | MBC test growth score ([1]; 60% preservative, 48 hour): +/− | MBC test growth score ([1]; 60% preservative, 72 hour): +/− | MBC test growth score ([1]; 60% preservative, 7 day): 12 | MBC test growth score ([1]; 60% preservative, 14 day): 10 | MBC test growth score ([1]; 70% preservative, 8 hour): + | MBC test growth score ([1]; 70% preservative, 24 hour): + | MBC test growth score ([1]; 70% preservative, 48 hour): +/− | MBC test growth score ([1]; 70% preservative, 72 hour): 23 | MBC test growth score ([1]; 70% preservative, 7 day): 8 | MBC test growth score ([1]; 70% preservative, 14 day): 9 | MBC test growth score ([1]; 80% preservative, 8 hour): + | MBC test growth score ([1]; 80% preservative, 24 hour): + | MBC test growth score ([1]; 80% preservative, 48 hour): +/− | MBC test growth score ([1]; 80% preservative, 72 hour): 20 | MBC test growth score ([1]; 80% preservative, 7 day): 7 | MBC test growth score ([1]; 80% preservative, 14 day): 6 | MBC test growth score ([1]; 90% preservative, 8 hour): + | MBC test growth score ([1]; 90% preservative, 24 hour): + | MBC test growth score ([1]; 90% preservative, 48 hour): +/− | MBC test growth score ([1]; 90% preservative, 72 hour): 16 | MBC test growth score ([1]; 90% preservative, 7 day): 6 | MBC test growth score ([1]; 100% preservative, 8 hour): + | MBC test growth score ([1]; 100% preservative, 24 hour): + | MBC test growth score ([1]; 100% preservative, 48 hour): +/− | MBC test growth score ([1]; 100% preservative, 72 hour): 12 | MBC test growth score ([1]; 100% preservative, 7 day): 3 | MBC test growth score ([1]; 100% preservative, 14 day): 2 | MBC test growth score (Pseudomonas putida (K)): 16 | MBC test growth score ([2]; 60% preservative, 14 day): 14 | MBC test growth score ([2]; 80% preservative, 72 hour): 14
